Results from PMC8793224.
These are yes or no findings as the source states them, for the method shown. Binding seen in cells or lysates may run through a third protein. Some results given as binding are weak or reduced against the parent protein; the word gives no strength.

Chains of the proteins cited; added tags and fusions are not shown.
UniProt P84025: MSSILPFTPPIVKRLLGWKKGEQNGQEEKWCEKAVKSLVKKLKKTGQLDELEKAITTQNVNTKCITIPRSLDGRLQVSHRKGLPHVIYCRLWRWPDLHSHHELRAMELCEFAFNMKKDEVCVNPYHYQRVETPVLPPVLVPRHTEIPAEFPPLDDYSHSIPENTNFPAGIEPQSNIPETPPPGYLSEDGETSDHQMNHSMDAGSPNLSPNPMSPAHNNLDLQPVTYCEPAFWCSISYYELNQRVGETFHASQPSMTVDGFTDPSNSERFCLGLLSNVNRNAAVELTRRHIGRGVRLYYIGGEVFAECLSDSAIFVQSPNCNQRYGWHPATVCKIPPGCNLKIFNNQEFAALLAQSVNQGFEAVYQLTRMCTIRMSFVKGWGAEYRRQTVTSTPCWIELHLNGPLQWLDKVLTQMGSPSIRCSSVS

Molecular target: Smad3 (rat (endogenous in Lewis rat heart tissue)) (UniProt P84025)
Assay: co-IP; heart tissue lysates (500 μg protein) of control, DCM, RSV-L and RSV-H rats; anti-Smad3 antibody 2 h at 4 °C, agarose A/G beads overnight at 4 °C, washed three times with PBS; Western blot with anti-Sirt1 antibody

- binding: binds
B1: silence information regulator 1 (Sirt1) (protein, UniProt A0A0G2JZ79 1-741)
chain: MADEAALALQAGGSPSAAAAMEAASQPADEPLRKRPRRDGPGLGRSPGEPSAAAAAAAAAAGCEAASAAAPAALWREAAGAAAASAEREAPATAAAGDGDNGPGLRREPRAADDFDDDEGEEEDEAAAAAAAAIGYRDNLLLADEIITNGFHSCESDDDDRASHASSSDWTPRPRIGPYTFVQQHLMIGTDPRTILKDLLPETIPPPELDDMTLWQIVINILSEPPKRKKRKDINTIEDAVKLLQECKKIIVLTGAGVSVSCGIPDFRSRDGIYARLAVDFPDLPDPQAMFDIEYFRKDPRPFFKFAKEIYPGQFQPSLCHKFIALSDKEGKLLRNYTQNIDTLEQVAGIQRIIQCHGSFATASCLICKYKVDCEAVRGDIFNQVVPRCPRCPADEPLAIMKPEIVFFGENLPEQFHRAMKYDKDEVDLLIVIGSSLKVRPVALIPSSIPHEVPQILINREPLPHLHFDVELLGDCDVIINELCHRLGGEYAKLCCNPVKLSEITEKPPRTQKELVHLSELPPTPLHISEDSSSPERTVPQDSSVIATLVDQTIKNKVDDLEVSEPKSCVEEKSQEVQTYRNVESINVENPDFKAVGSSTGDKNERTSVAETVRKCWPNRLAKEQISKRLDGNQYLFVPPNRYIFHGAEVYSDSEDDALSSSSCGSNSDSGTCQSPSLEEPLEDESEIEEFYNGLEDDADRPECAGGSGADGGDQEAVNEAIAMKQELTDVNCTPDKSEHY
